Source: the supplement of paper PMC10382679
Single values of this set are uncertain.

B1: Rpb7; numbered along this chain (parent)
chain: MFFIKDLSLNITLHPSFFGPRMKQYLKTKLLEEVEGSCTGKFGYILCVLDYDNIDIQRGRILPTDGSAEFNVKYRAVVFKPFKGEVVDGTVVSCSQHGFEVQVGPMKVFVTKHLMPQDLTFNAGSNPPSYQSSEDVITIKSRIRVKIEGCISQVSSIHAIGSIKEDYLGAI

Key:
[1] = variants of: B1; assay: log2 fold change of mutant abundance, UV-irradiated vs unirradiated; higher = more UV resistant (enriched after UV); conditions: with Saccharomyces cerevisiae rad7Δ rad26Δ; UV dose (J/m2): 10; genetic background: rad7Δ rad26Δ rpb7Δ + plasmid RPB7 library; outgrowth: 10 cell divisions
[2] = variants of: B1; assay: NOISeq theta enrichment statistic, UV-irradiated vs unirradiated (dimensionless); higher = more UV resistant (enriched after UV); conditions: with Saccharomyces cerevisiae rad7Δ rad26Δ; UV dose (J/m2): 10; genetic background: rad7Δ rad26Δ rpb7Δ + plasmid RPB7 library; outgrowth: 10 cell divisions

| Variant | log2 fold change of mutant abundance [1] | NOISeq theta enrichment statistic [2] |
| --- | --- | --- |
| MFFIKDLSLNITLHPSFFGPRMKQYLKTKLLEEVEGSCTGKFGYILCVLDYDNIDIQRGRILPTDGSAEFNVKYRAVVFKPFKGEVVDGTVVSCDQHGFEVQVGPMKVFVTKHLMPQDLTFNAGSNPPSYQSSEDVITIKSRIRVKIEGCISQVSSIHAIGSIKEDYLGAI | -0.281 | -0.271 |
| MFFIKDLSLNITLHPSFFGPRMKQYLKTKLLEEVEGSCTGKFGYILCVLDYDNIDIQRGRILPTDGSAEFNVKYRAVVFKPFKGEVVDGTVVSCGQHGFEVQVGPMKVFVTKHLMPQDLTFNAGSNPPSYQSSEDVITIKSRIRVKIEGCISQVSSIHAIGSIKEDYLGAI | 0.0546 | 0.0421 |
| MFFIKDLSLNITLHPSFFGPRMKQYLKTKLLEEVEGSCTGKFGYILCVLDYDNIDIQRGRILPTDGSAEFNVKYRAVVFKPFKGEVVDGTVVSCHQHGFEVQVGPMKVFVTKHLMPQDLTFNAGSNPPSYQSSEDVITIKSRIRVKIEGCISQVSSIHAIGSIKEDYLGAI | -0.0856 | -0.0725 |
| MFFIKDLSLNITLHPSFFGPRMKQYLKTKLLEEVEGSCTGKFGYILCVLDYDNIDIQRGRILPTDGSAEFNVKYRAVVFKPFKGEVVDGTVVSCIQHGFEVQVGPMKVFVTKHLMPQDLTFNAGSNPPSYQSSEDVITIKSRIRVKIEGCISQVSSIHAIGSIKEDYLGAI | 0.0109 | 0.021 |
| MFFIKDLSLNITLHPSFFGPRMKQYLKTKLLEEVEGSCTGKFGYILCVLDYDNIDIQRGRILPTDGSAEFNVKYRAVVFKPFKGEVVDGTVVSCKQHGFEVQVGPMKVFVTKHLMPQDLTFNAGSNPPSYQSSEDVITIKSRIRVKIEGCISQVSSIHAIGSIKEDYLGAI | -0.311 | -0.259 |
| MFFIKDLSLNITLHPSFFGPRMKQYLKTKLLEEVEGSCTGKFGYILCVLDYDNIDIQRGRILPTDGSAEFNVKYRAVVFKPFKGEVVDGTVVSCLQHGFEVQVGPMKVFVTKHLMPQDLTFNAGSNPPSYQSSEDVITIKSRIRVKIEGCISQVSSIHAIGSIKEDYLGAI | 0.0316 | 0.18 |
| MFFIKDLSLNITLHPSFFGPRMKQYLKTKLLEEVEGSCTGKFGYILCVLDYDNIDIQRGRILPTDGSAEFNVKYRAVVFKPFKGEVVDGTVVSCMQHGFEVQVGPMKVFVTKHLMPQDLTFNAGSNPPSYQSSEDVITIKSRIRVKIEGCISQVSSIHAIGSIKEDYLGAI | 0.296 | 0.215 |
| MFFIKDLSLNITLHPSFFGPRMKQYLKTKLLEEVEGSCTGKFGYILCVLDYDNIDIQRGRILPTDGSAEFNVKYRAVVFKPFKGEVVDGTVVSCNQHGFEVQVGPMKVFVTKHLMPQDLTFNAGSNPPSYQSSEDVITIKSRIRVKIEGCISQVSSIHAIGSIKEDYLGAI | 0.0144 | 0.0187 |
| MFFIKDLSLNITLHPSFFGPRMKQYLKTKLLEEVEGSCTGKFGYILCVLDYDNIDIQRGRILPTDGSAEFNVKYRAVVFKPFKGEVVDGTVVSCPQHGFEVQVGPMKVFVTKHLMPQDLTFNAGSNPPSYQSSEDVITIKSRIRVKIEGCISQVSSIHAIGSIKEDYLGAI | 0.0264 | 0.0378 |
| MFFIKDLSLNITLHPSFFGPRMKQYLKTKLLEEVEGSCTGKFGYILCVLDYDNIDIQRGRILPTDGSAEFNVKYRAVVFKPFKGEVVDGTVVSCRQHGFEVQVGPMKVFVTKHLMPQDLTFNAGSNPPSYQSSEDVITIKSRIRVKIEGCISQVSSIHAIGSIKEDYLGAI | 0.161 | 0.119 |
| MFFIKDLSLNITLHPSFFGPRMKQYLKTKLLEEVEGSCTGKFGYILCVLDYDNIDIQRGRILPTDGSAEFNVKYRAVVFKPFKGEVVDGTVVSCTQHGFEVQVGPMKVFVTKHLMPQDLTFNAGSNPPSYQSSEDVITIKSRIRVKIEGCISQVSSIHAIGSIKEDYLGAI | -0.0573 | -0.253 |
| MFFIKDLSLNITLHPSFFGPRMKQYLKTKLLEEVEGSCTGKFGYILCVLDYDNIDIQRGRILPTDGSAEFNVKYRAVVFKPFKGEVVDGTVVSCVQHGFEVQVGPMKVFVTKHLMPQDLTFNAGSNPPSYQSSEDVITIKSRIRVKIEGCISQVSSIHAIGSIKEDYLGAI | -0.0487 | -0.0822 |
| MFFIKDLSLNITLHPSFFGPRMKQYLKTKLLEEVEGSCTGKFGYILCVLDYDNIDIQRGRILPTDGSAEFNVKYRAVVFKPFKGEVVDGTVVSCWQHGFEVQVGPMKVFVTKHLMPQDLTFNAGSNPPSYQSSEDVITIKSRIRVKIEGCISQVSSIHAIGSIKEDYLGAI | 0.215 | 0.202 |
| MFFIKDLSLNITLHPSFFGPRMKQYLKTKLLEEVEGSCTGKFGYILCVLDYDNIDIQRGRILPTDGSAEFNVKYRAVVFKPFKGEVVDGTVVSCYQHGFEVQVGPMKVFVTKHLMPQDLTFNAGSNPPSYQSSEDVITIKSRIRVKIEGCISQVSSIHAIGSIKEDYLGAI | -0.0416 | -0.373 |
| MFFIKDLSLNITLHPSFFGPRMKQYLKTKLLEEVEGSCTGKFGYILCVLDYDNIDIQRGRILPTDGSAEFNVKYRAVVFKPFKGEVVDGTVVSCSAHGFEVQVGPMKVFVTKHLMPQDLTFNAGSNPPSYQSSEDVITIKSRIRVKIEGCISQVSSIHAIGSIKEDYLGAI | 0.0987 | 0.131 |
| MFFIKDLSLNITLHPSFFGPRMKQYLKTKLLEEVEGSCTGKFGYILCVLDYDNIDIQRGRILPTDGSAEFNVKYRAVVFKPFKGEVVDGTVVSCSCHGFEVQVGPMKVFVTKHLMPQDLTFNAGSNPPSYQSSEDVITIKSRIRVKIEGCISQVSSIHAIGSIKEDYLGAI | 0.042 | 0.0378 |
| MFFIKDLSLNITLHPSFFGPRMKQYLKTKLLEEVEGSCTGKFGYILCVLDYDNIDIQRGRILPTDGSAEFNVKYRAVVFKPFKGEVVDGTVVSCSDHGFEVQVGPMKVFVTKHLMPQDLTFNAGSNPPSYQSSEDVITIKSRIRVKIEGCISQVSSIHAIGSIKEDYLGAI | 0.0731 | 0.0841 |

Two entries from above, as labelled records:
MFFIKDLSLNITLHPSFFGPRMKQYLKTKLLEEVEGSCTGKFGYILCVLDYDNIDIQRGRILPTDGSAEFNVKYRAVVFKPFKGEVVDGTVVSCHQHGFEVQVGPMKVFVTKHLMPQDLTFNAGSNPPSYQSSEDVITIKSRIRVKIEGCISQVSSIHAIGSIKEDYLGAI
  log2 fold change of mutant abundance [1] = -0.0856
  NOISeq theta enrichment statistic [2] = -0.0725
MFFIKDLSLNITLHPSFFGPRMKQYLKTKLLEEVEGSCTGKFGYILCVLDYDNIDIQRGRILPTDGSAEFNVKYRAVVFKPFKGEVVDGTVVSCNQHGFEVQVGPMKVFVTKHLMPQDLTFNAGSNPPSYQSSEDVITIKSRIRVKIEGCISQVSSIHAIGSIKEDYLGAI
  log2 fold change of mutant abundance [1] = 0.0144
  NOISeq theta enrichment statistic [2] = 0.0187
